PubChem BioAssay AID686943 – Drosophila RNAi Screening Center, 2013
The screen tested about 23,000 reagents; below is an unselected part of those that have a named target and a result. 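Extra replicates exist only for a retested subset of genes; insulin dose and duration not given; both raised and lowered dpERK matter.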 Reagents against one gene are numbered here. A plus sign joins genes that one reagent is predicted to hit. No sequences are given here. Not given: the amount of reagent, the time to read-out.

- Test: 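Knockdowns that increase or decrease active ERK after insulin receptor stimulation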 (primary screen)
- Cell system: Drosophila S2R+ haemocyte-like cells expressing YFP-tagged ERK (Rolled)
- Reagent: long dsRNA against Drosophila genes
- Conditions: insulin stimulation versus unstimulated cells; dose and duration not given
- Measured: 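Per-plate z-scores of phospho-ERK immunostaining normalised to YFP-tagged ERK, measured with and without insulin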
- Direction: replicate 1, z-score of dpERK with insulin and replicate 2, z-score of dpERK with insulin: higher = more active ERK per ERK-YFP after insulin; replicate 1, z-score of dpERK under basal conditions: higher = more basal active ERK per ERK-YFP; replicate 1, z-score of ERK-YFP with insulin: higher = more YFP-tagged ERK signal

predicted target,reagent no.,"replicate 1, z-score of dpERK with insulin","replicate 2, z-score of dpERK with insulin","replicate 1, z-score of dpERK under basal conditions","replicate 1, z-score of ERK-YFP with insulin"
CG17816,1,-1.61,-1.49,-0.64,-1.36
Reg-2 (Rhythmically expressed gene 2),1,-0.7,0.78,-0.07,1.4
TwdlE (TweedleE),1,0.73,-0.09,1.6,0.24
p130CAS,1,1.04,1.19,0.15,-0.15
p130CAS,2,0.87,1.37,-0.2,0.28
CG42826,1,-0.65,0.68,-0.13,-0.04
CG1764,1,0.59,0.83,-0.16,0.11
RpL35A (Ribosomal protein L35A),1,-2.61,-2.02,-2.68,-1.64
Magi,1,0.22,0.62,0.62,0.81
Magi,2,0.86,0.28,-0.58,-0.86
CG9752,1,0.42,-0.08,0.85,0.27
asRNA:CR43259 + CG31089,1,0.37,-0.14,0.03,0.34
nmdyn-D7,1,-1.28,-0.27,-0.11,0.77
mthl15 (methuselah-like 15),1,-0.73,-1.8,-0.97,-0.2
CG16798,1,0.67,0.88,1.48,-0.4
sun (stunted),1,-0.46,-0.21,-2.13,-0.35
t (tan),1,-0.2,0.26,-0.68,0.32
CG33061,1,0.28,-0.82,1.15,-0.46
CG33061,2,0.25,0.44,-0.15,-0.59
CG12945,1,0.52,0.62,-0.14,-0.29
Non3 (Novel nucleolar protein 3),1,-0.53,-0.16,-0.06,-1.6
sra (sarah),1,-0.42,-0.03,0.5,0.94
CG14417,1,0.05,-0.02,-0.2,0.1
CG32432,1,-1.36,-3.98,-1.8,-4.91
CG32432,2,0.05,-2.18,-0.96,-0.78
CG32432,3,-0.38,0.41,1.28,0.31
snk (snake),1,-0.32,1.45,0.74,0.01
indra,1,-1.08,-0.91,-0.32,0.01
Rexo5 (RNA exonuclease 5),1,-0.49,-0.17,0.06,0.25
CR10032 (pseudo),1,0.49,0.56,-1.12,-0.46
Nup133 (Nucleoporin 133kD),1,0.23,0.15,1.26,-2.76
Elp2 (Elongator complex protein 2),1,0.54,-0.28,0,-0.45
Ak3 (Adenylate kinase 3),1,-0.11,-0.03,0.13,-0.09
CG6834,1,0.27,0.77,0.86,-0.06
Gr21a (Gustatory receptor 21a),1,2.03,1.76,0.47,-0.32
CG9837,1,0.58,0.98,0.11,0.51
I-2 (Inhibitor-2),1,-1.24,-2.84,-1.35,-1.03
Cpr47Ea (Cuticular protein 47Ea),1,0.96,0.11,0.51,-0.11
ChAT (Choline acetyltransferase),1,0.31,1.26,0.17,0.18
ChAT (Choline acetyltransferase),2,-0.77,-0.45,-1.56,0.52
ChAT (Choline acetyltransferase),3,0.25,0.03,-0.88,-0.52

Looked up above.
Result for CG42826 under “replicate 2, z-score of dpERK with insulin”: 0.68
CG32432 #2, replicate 1, z-score of dpERK under basal conditions → -0.96
Result of CG32432 #3 in “replicate 2, z-score of dpERK with insulin”: 0.41
For “replicate 2, z-score of dpERK with insulin”, CG9752 has -0.08
TwdlE (TweedleE), replicate 1, z-score of dpERK under basal conditions = 1.6
